Reference: patent US20090208445A1, “Compositions Comprising Eucalyptol And/Or Ocimene And/Or Farnesol For Use As Bumblebee Pheromones” (QUEEN MARY & WESTFIELD COLLEGE, priority 2005, published 2009)

Tests used:
[1] = HS-SPME GC-MS analysis of air samples from the bumblebee nest box before and during foraging; design: species or system Bombus terrestris; conditions: for Amount of volatiles (substances also evaluated): all samples evaluated (nest box and tergites), LOQ: limit of quantification; for Amount of volatiles, Nest before foraging / Amount of volatiles, Nest during foraging: nest box airspace, average +/- SE, n=10
[2] = HS-SPME GC-MS analysis of tergites of foragers before and during foraging; design: species or system Bombus terrestris; conditions: average +/- SE; for Amount of volatiles, Tergites during foraging: tergites of 5 foragers just returned from the feeder; for Amount of volatiles, Tergites before foraging: tergites of 5 foragers not offered food

In the case of `C=CCc1ccc(O)c(OC)c1` [eugenol], the “Amount of volatiles (substances also evaluated)” value [1] is reported as “< LOQ”.
For `CC1=CCC2C(C1)C2(C)C` (stereo not drawn) [3-carene], the “Amount of volatiles (substances also evaluated)” value [1] was “< LOQ”.
For `CC(C)=CCC/C(C)=C/C(=O)O` [geranic acid], the “Amount of volatiles (substances also evaluated)” value [1] was “< LOQ”.
For `Cc1ccccc1` [Toluene], the “Amount of volatiles, Nest before foraging” value [1] was 920.8 ± 114.3 nanograms, the “Amount of volatiles, Nest during foraging” value [1] was 912.1 ± 353.3 nanograms and the “Amount of volatiles, Tergites during foraging” value [2] was 624.4 ± 270.6 nanograms. The “Amount of volatiles, Tergites before foraging” value [2] was 453.2 ± 143.4 nanograms.
For `COc1ccc(C=O)cc1` [p-anisaldehyde], the “Amount of volatiles (substances also evaluated)” value [1] was “< LOQ”.
In the case of `COc1ccc(OC)c(OC)c1` [1,2,4-trimethoxybenzene], the “Amount of volatiles (substances also evaluated)” value [1] is reported as “< LOQ”.
With `C=CC(=C)CCC=C(C)C` [Myrcene] the “Amount of volatiles, Nest before foraging” value [1] was 991.3 ± 650.7 nanograms, the “Amount of volatiles, Nest during foraging” value [1] was 976.5 ± 471.2 nanograms and the “Amount of volatiles, Tergites during foraging” value [2] was 627.4 ± 241.7 nanograms. For the same compound, the “Amount of volatiles, Tergites before foraging” value [2] was 546.4 ± 126.8 nanograms.
In the case of `Cc1ccccc1C` [o-xylene], the “Amount of volatiles (substances also evaluated)” value [1] is reported as “< LOQ”.
With `c1ccc2[nH]ccc2c1` [indole] the “Amount of volatiles (substances also evaluated)” value [1] was “< LOQ”.
For `CC12CCC(CC1)C(C)(C)O2` [Eucalyptol, 1,3,3-Trimethyl-2-oxabicyclo[2.2.2.]octane], the “Amount of volatiles, Nest before foraging” value [1] was “<LOQ**”, the “Amount of volatiles, Nest during foraging” value [1] was 799.2 ± 227.9 nanograms and the “Amount of volatiles, Tergites during foraging” value [2] was 622.4 ± 134.4 nanograms. The “Amount of volatiles, Tergites before foraging” value [2] was “<LOQ***”.
For `C=CC(C)(O)CCC=C(C)C` (stereo not drawn) [Linalool], the “Amount of volatiles, Nest before foraging” value [1] was 554.1 ± 242.7 nanograms, the “Amount of volatiles, Nest during foraging” value [1] was 788 ± 237.1 nanograms and the “Amount of volatiles, Tergites during foraging” value [2] was 160.0 ± 149.1 nanograms. For the same compound, the “Amount of volatiles, Tergites before foraging” value [2] was 169.4 ± 170.3 nanograms.
In the case of `COc1ccc(OC)cc1` [1,4-dimethoxybenzene], the “Amount of volatiles (substances also evaluated)” value [1] is reported as “< LOQ”.
For `O=CC=Cc1ccccc1` [cinnamaldehyde], the “Amount of volatiles (substances also evaluated)” value [1] was “< LOQ”.
In the case of `c1ccccc1` [Benzene], the “Amount of volatiles (substances also evaluated)” value [1] is reported as “< LOQ”.
For `CC(C)=CCCC(C)=CC=O` [citral], the “Amount of volatiles (substances also evaluated)” value [1] was “< LOQ”.
For `OCC=Cc1ccccc1` [cinnamyl alcohol], the “Amount of volatiles (substances also evaluated)” value [1] was “< LOQ”.
With `CCCCOC(=O)c1ccccc1C(=O)OCCCC` [dibuthyl phthalate] the “Amount of volatiles (substances also evaluated)” value [1] was “< LOQ”.
For `CC(=O)OC/C=C(\C)CCC=C(C)C` [geranyl acetate], the “Amount of volatiles (substances also evaluated)” value [1] was “< LOQ”.
